From the supplement of paper PMC10849652
This is one part of the list.

The chains behind the UniProt entries cited, without tags or fusion partners. Where a name states a change or a piece, a line headed by the entry shows the natural chain unless it says otherwise.
UniProt Q9Y6G5, whole entry, looked up: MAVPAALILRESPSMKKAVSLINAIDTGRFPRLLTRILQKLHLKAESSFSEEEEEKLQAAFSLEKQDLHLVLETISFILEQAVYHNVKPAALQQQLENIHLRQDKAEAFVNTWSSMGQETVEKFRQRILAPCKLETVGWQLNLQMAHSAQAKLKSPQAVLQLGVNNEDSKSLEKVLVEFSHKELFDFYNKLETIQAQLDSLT
UniProt P50416: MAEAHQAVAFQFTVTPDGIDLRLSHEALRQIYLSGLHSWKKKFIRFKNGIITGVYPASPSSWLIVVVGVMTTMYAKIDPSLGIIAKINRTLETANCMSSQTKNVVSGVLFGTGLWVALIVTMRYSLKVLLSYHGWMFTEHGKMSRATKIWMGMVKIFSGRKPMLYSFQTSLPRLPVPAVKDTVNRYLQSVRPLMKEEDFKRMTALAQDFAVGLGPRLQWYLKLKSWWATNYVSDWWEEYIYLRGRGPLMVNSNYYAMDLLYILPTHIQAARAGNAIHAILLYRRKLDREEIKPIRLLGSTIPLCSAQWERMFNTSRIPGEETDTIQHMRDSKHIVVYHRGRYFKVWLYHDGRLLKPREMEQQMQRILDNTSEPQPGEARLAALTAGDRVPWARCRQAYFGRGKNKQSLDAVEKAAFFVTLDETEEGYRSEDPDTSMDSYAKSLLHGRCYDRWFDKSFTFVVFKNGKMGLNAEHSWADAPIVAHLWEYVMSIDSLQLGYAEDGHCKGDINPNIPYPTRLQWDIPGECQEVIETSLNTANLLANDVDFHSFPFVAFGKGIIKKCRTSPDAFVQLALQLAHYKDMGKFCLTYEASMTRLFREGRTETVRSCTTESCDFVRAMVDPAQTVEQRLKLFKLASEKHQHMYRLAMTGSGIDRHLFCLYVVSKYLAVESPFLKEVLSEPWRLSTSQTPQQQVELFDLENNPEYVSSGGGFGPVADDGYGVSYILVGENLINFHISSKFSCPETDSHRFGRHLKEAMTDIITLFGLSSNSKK
UniProt Q9GZQ3, whole entry, looked up: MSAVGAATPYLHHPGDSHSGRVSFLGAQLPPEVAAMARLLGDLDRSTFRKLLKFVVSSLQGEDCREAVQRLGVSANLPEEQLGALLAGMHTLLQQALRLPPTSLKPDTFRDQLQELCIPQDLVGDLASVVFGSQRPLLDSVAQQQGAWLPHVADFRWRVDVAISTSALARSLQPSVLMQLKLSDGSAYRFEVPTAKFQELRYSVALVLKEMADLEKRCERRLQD
UniProt Q9Y646: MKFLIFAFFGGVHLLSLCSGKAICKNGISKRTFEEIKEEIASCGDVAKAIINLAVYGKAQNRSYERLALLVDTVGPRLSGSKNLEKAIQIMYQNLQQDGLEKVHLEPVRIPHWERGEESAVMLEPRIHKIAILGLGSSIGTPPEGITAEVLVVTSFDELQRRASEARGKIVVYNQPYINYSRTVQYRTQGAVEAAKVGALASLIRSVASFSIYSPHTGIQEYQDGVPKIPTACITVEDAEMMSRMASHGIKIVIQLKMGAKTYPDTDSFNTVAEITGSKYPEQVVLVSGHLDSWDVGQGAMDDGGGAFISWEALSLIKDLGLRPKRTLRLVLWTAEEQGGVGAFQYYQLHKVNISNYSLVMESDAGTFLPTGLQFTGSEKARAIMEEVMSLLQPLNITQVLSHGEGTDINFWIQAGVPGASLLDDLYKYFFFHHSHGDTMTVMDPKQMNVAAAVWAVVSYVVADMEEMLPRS
UniProt Q7KZN9: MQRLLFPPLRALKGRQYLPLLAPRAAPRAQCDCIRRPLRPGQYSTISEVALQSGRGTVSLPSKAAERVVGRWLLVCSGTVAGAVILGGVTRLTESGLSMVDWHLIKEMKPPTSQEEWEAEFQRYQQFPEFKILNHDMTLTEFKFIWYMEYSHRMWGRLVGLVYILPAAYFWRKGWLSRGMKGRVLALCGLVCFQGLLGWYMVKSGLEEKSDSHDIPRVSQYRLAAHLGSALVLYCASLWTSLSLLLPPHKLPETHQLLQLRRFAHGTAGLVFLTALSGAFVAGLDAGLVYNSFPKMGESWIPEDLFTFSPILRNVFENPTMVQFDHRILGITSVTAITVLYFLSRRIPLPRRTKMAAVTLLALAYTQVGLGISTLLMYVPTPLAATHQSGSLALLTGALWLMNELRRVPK
UniProt Q86X83, whole entry, looked up: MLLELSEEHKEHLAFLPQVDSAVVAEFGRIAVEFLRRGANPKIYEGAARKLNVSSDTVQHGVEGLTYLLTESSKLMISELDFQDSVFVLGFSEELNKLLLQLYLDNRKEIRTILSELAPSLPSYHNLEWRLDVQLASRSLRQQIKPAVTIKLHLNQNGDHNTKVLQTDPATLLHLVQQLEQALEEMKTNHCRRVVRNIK
UniProt P20674, whole entry, looked up: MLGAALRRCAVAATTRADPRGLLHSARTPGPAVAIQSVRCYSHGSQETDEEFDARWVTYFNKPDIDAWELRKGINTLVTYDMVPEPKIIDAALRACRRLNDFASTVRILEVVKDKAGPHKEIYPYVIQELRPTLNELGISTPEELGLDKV

Assays:
Test in all cases: log2 fold change, soluble protein after heating vs DMSO (PISA); higher = thermal stabilisation; K562 cells, 10 uM, 30 min; active = over 0.2 and 3.5 SD of the protein, either way, in both replicates (recomputed)
saracatinib = compound: CN1CCN(CCOc2cc(OC3CCOCC3)c3c(Nc4c(Cl)ccc5c4OCO5)ncnc3c2)CC1 [saracatinib]
Procedure, shortened: (§1)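 Soluble protein was quantified by TMTpro 16plex LC-MS/MS after channel sums were equalised. It was obtained as the supernatant after 21,000xg for 90 min from pooled aliquots of K562 cells (2×10^6 cells/mL, 10 μM compound, 30 min) heated for 3 min across 48°C-58°C and extracted in PBS with 0.5% NP-40 at 4°C. Thermal stability values are relative to control samples and come from duplicates. They are given as log2 fold changes.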

sotrastaurin = compound: CN1CCN(c2nc(C3=C(c4c[nH]c5ccccc45)C(=O)NC3=O)c3ccccc3n2)CC1 [sotrastaurin]
Procedure, shortened: as §1

alvocidib = compound: CN1CC[C@H](c2c(O)cc(O)c3c(=O)cc(-c4ccccc4Cl)oc23)[C@H](O)C1 [alvocidib]
Procedure, shortened: as §1

Tubastatin A = compound: CN1CCc2c(c3ccccc3n2Cc2ccc(C(=O)NO)cc2)C1 [Tubastatin A]
Procedure, shortened: as §1

[1] = compound: CNC(=O)C1=CC=CC=C1NC2=NC(=NC=C2Cl)NC3=C(C=C(C=C3)N4CCOCC4)OC
Procedure, shortened: as §1

defactinib = compound: CNC(=O)c1ccc(Nc2ncc(C(F)(F)F)c(NCc3nccnc3N(C)S(C)(=O)=O)n2)cc1 [defactinib]
Procedure, shortened: as §1

rucaparib = compound: CNCc1ccc(-c2[nH]c3cc(F)cc4c3c2CCNC4=O)cc1 [rucaparib]
Procedure, shortened: as §1

[2] = compound: CNc1nc(-c2ccc3c(N)n[nH]c3c2)cc(N2C[C@@H](C(=O)NC3CCCCC3)CC[C@H]2C)n1
Procedure, shortened: as §1

encorafenib = compound: COC(=O)N[C@@H](C)CNc1nccc(-c2cn(C(C)C)nc2-c2cc(Cl)cc(NS(C)(=O)=O)c2F)n1 [encorafenib]
Procedure, shortened: as §1

[3] = compound: COC(=O)[C@H](CCSC)NC(=O)C1=C(C=C(C=C1)NC[C@H](CS)N)C2=CC=CC=C2
Procedure, shortened: as §1

[4] = compound: COC1=CC=C(C=C1)CN2C=CC3=C2C=C(C=C3)C(=O)NO
Procedure, shortened: as §1

filanesib = compound: CON(C)C(=O)N1N=C(c2cc(F)ccc2F)S[C@@]1(CCCN)c1ccccc1 [filanesib]
Procedure, shortened: as §1

zotarolimus = compound: CO[C@H]1C[C@@H]2CC[C@@H](C)[C@@](O)(O2)C(=O)C(=O)N2CCCC[C@H]2C(=O)O[C@H]([C@H](C)C[C@@H]2CC[C@H](n3cnnn3)[C@H](OC)C2)CC(=O)[C@H](C)/C=C(\C)[C@@H](O)[C@@H](OC)C(=O)[C@H](C)C[C@H](C)/C=C/C=C/C=C/1C [zotarolimus]
Procedure, shortened: as §1

idasanutlin = compound: COc1cc(C(=O)O)ccc1NC(=O)[C@@H]1N[C@@H](CC(C)(C)C)[C@](C#N)(c2ccc(Cl)cc2F)[C@H]1c1cccc(Cl)c1F [idasanutlin]
Procedure, shortened: as §1

alisertib = compound: COc1cc(Nc2ncc3c(n2)-c2ccc(Cl)cc2C(c2c(F)cccc2OC)=NC3)ccc1C(=O)O [alisertib]
Procedure, shortened: as §1

[5] = compound: COc1cc2nc(-c3cc(F)ccc3O)nc(N[C@@H]3CNC[C@H]3C(C)(C)O)c2cc1OC
Procedure, shortened: as §1

gefitinib = compound: COc1cc2ncnc(Nc3ccc(F)c(Cl)c3)c2cc1OCCCN1CCOCC1 [gefitinib]
Procedure, shortened: as §1

[6] = compound: COc1cccc2cc(-c3nc([C@H]4CC[C@H](C(=O)O)CC4)n4ncnc(N)c34)[nH]c12
Procedure, shortened: as §1

lapatinib = compound: CS(=O)(=O)CCNCc1ccc(-c2ccc3ncnc(Nc4ccc(OCc5cccc(F)c5)c(Cl)c4)c3c2)o1 [lapatinib]
Procedure, shortened: as §1

pictilisib = compound: CS(=O)(=O)N1CCN(Cc2cc3nc(-c4cccc5[nH]ncc45)nc(N4CCOCC4)c3s2)CC1 [pictilisib]
Procedure, shortened: as §1

Measured: log2 fold change

COMMD10 (UniProt Q9Y6G5)
inactive: saracatinib 0.067 | sotrastaurin -0.011 | alvocidib -0.041 | Tubastatin A 0.013 | [1] -0.007 | defactinib -0.033 | rucaparib -0.027 | [2] -0.053 | encorafenib 0.019 | [3] -0.049 | [4] -0.062 | filanesib 0.011 | zotarolimus 0.027 | idasanutlin -0.023 | alisertib -0.072 | [5] -0.055 | gefitinib 0.01 | [6] 0.015 | lapatinib 0.088 | pictilisib -0.007

CPT1A (UniProt P50416)
inactive: saracatinib 0.021 | sotrastaurin 0.075 | Tubastatin A 0.142 | [1] 0.161 | defactinib -0.087 | rucaparib 0.054 | [2] 0.148 | encorafenib 0.069 | [3] -0.04 | [4] 0.073 | filanesib 0.204 | zotarolimus 0.118 | idasanutlin 0.086 | alisertib 0.235 | [5] 0.308 | gefitinib 0.028 | [6] -0.151 | lapatinib 0.1 | pictilisib 0.257
active: alvocidib 0.578

COQ10B (UniProt Q9H8M1)
inactive: saracatinib 0.049 | sotrastaurin 0.2 | alvocidib 0.284 | rucaparib -0.204 | [2] -0.212 | encorafenib -0.137 | [4] -0.335 | filanesib 0.221 | zotarolimus -0.097

COMMD5 (UniProt Q9GZQ3)
inactive: saracatinib -0.003 | sotrastaurin -0.005 | alvocidib -0.05 | Tubastatin A 0.041 | [1] 0.074 | defactinib 0 | rucaparib -0.075 | [2] -0.013 | encorafenib 0.011 | [3] 0.015 | [4] 0.068 | filanesib 0.028 | zotarolimus 0.022 | idasanutlin -0.132 | alisertib -0.012 | [5] -0.007 | gefitinib -0.013 | [6] 0.006 | lapatinib 0.075 | pictilisib -0.081

CPQ (UniProt Q9Y646)
inactive: saracatinib 0.039 | sotrastaurin -0.012 | Tubastatin A 0.02 | [1] -0.049 | defactinib -0.035 | rucaparib -0.042 | [2] -0.031 | encorafenib 0.008 | [3] 0.006 | [4] -0.014 | filanesib -0.05 | zotarolimus -0.058 | idasanutlin -0.093 | alisertib -0.054 | [5] 0.01 | gefitinib 0.038 | [6] 0.047 | lapatinib -0.014 | pictilisib 0.027

COX15 (UniProt Q7KZN9)
active: rucaparib -0.236
inactive: saracatinib 0.071 | sotrastaurin 0.004 | Tubastatin A -0.009 | [1] -0.008 | defactinib -0.003 | [2] -0.017 | encorafenib 0.023 | [3] 0.002 | [4] 0.04 | filanesib -0.046 | zotarolimus 0.005 | idasanutlin -0.055 | alisertib -0.054 | [5] -0.012 | gefitinib -0.001 | [6] 0.052 | lapatinib 0.001 | pictilisib 0.071

COMMD2 (UniProt Q86X83)
inactive: saracatinib -0.17 | sotrastaurin 0.043 | Tubastatin A 0.179 | defactinib -0.088 | rucaparib 0.034 | [2] 0.039 | encorafenib -0.005 | [3] 0.012 | [4] -0.039 | filanesib 0.058 | zotarolimus 0.124 | idasanutlin -0.058 | alisertib -0.126 | [5] 0.076 | gefitinib 0.018 | [6] 0.001 | lapatinib 0.02 | pictilisib 0.007
active: [1] 0.411

COX5A (UniProt P20674)
inactive: saracatinib -0.063 | sotrastaurin 0.025 | Tubastatin A -0.015 | [1] 0.043 | defactinib -0.016 | rucaparib 0.011 | [2] 0.007 | encorafenib -0.036 | [3] 0.11 | [4] -0.1 | filanesib 0.015 | zotarolimus 0.054 | idasanutlin -0.012 | alisertib -0.13 | [5] -0.092 | gefitinib 0.067 | [6] 0.084 | lapatinib -0.108 | pictilisib 0.108

COPS4 (UniProt Q9BT78)
inactive: saracatinib 0.028 | sotrastaurin 0.008 | Tubastatin A -0.011 | [1] -0.005 | defactinib -0.015 | rucaparib 0.004 | [2] -0.006 | encorafenib -0.001 | [3] -0.007 | filanesib -0.067 | zotarolimus 0.032 | idasanutlin -0.039 | alisertib -0.054 | [5] -0.035 | gefitinib -0.007 | [6] 0.019 | lapatinib 0.025 | pictilisib -0.011
active: [4] 0.219
